The list shows only some results of the screen, not a fair sample: its compounds were picked by chemical class. Other doses and runs of a compound may be missing. T/C gives the treated animals as a percentage of the vehicle group. Some doses have a count of surviving animals in place of a T/C: the source files T/C as zero there, which appears to mark a toxic dose or a test without result, not a measured value. Some doses without a T/C left all or most animals alive at the check, yet need not have been tolerated: survival well below the control is almost never listed, so the zero probably covers shortened survival too. Counts of survivors are from the toxicity check (mostly the fifth day) where no day follows; animals may have died later. Schedule codes are those of the source, read here as Q, the interval in days (D) or hours (H), X, the number of doses. Counts like (3×) give the number of equal values in this list. For survival time, this PubChem deposit counts one and a half times the control or more as active, and values a quarter to a half above the control carry no call in these data; other NCI protocols may use other cut-offs. Some doses were run more than once; the values are given in rising order. Some T/C values are marked as having no survivor count here; that says nothing about deaths at the dose. Some T/C values carry the count of animals alive at the toxicity check (mostly the fifth day); where neither a count nor a note follows, no animal had died by that day.
Tested on: BDF1 mice, P388 leukemia ip, median survival T/C
Test: NCI In Vivo Anticancer Drug Screen. Data for tumor model P388 Leukemia (intraperitoneal) in B6D2F1 (BDF1) mice
Conditions: T/C endpoint: median survival time, higher T/C = longer survival
Summary of the method: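 In tumour-bearing mice, survival after compound treatment is set against the vehicle group and given as a quotient.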

[1] = dose: 100.0 mg/kg/injection, schedule: Q04DX003 (ip), vehicle: saline sonified
[2] = dose: 200.0 mg/kg/injection, schedule: Q04DX003 (ip), vehicle: saline sonified
[3] = dose: 100.0 mg/kg/injection, schedule: Q04DX003 (ip), vehicle: saline
[4] = dose: 200.0 mg/kg/injection, schedule: Q04DX003 (ip), vehicle: saline
[5] = dose: 300.0 mg/kg/injection, schedule: Q04DX003 (ip), vehicle: saline
[6] = dose: 400.0 mg/kg/injection, schedule: Q04DX003 (ip), vehicle: saline
[7] = dose: 50.0 mg/kg/injection, schedule: Q04DX003 (ip), vehicle: saline
[8] = dose: 50.0 mg/kg/injection, schedule: Q01DX009 (ip), vehicle: saline with Tween-80
[9] = dose: 100.0 mg/kg/injection, schedule: Q01DX009 (ip), vehicle: saline with Tween-80
[10] = dose: 200.0 mg/kg/injection, schedule: Q01DX009 (ip), vehicle: saline with Tween-80
[11] = dose: 25.0 mg/kg/injection, schedule: Q01DX009 (ip), vehicle: saline

In the case of `CC1(C)CN1P(=O)(Nc1ccccn1)N1CC1(C)C` (stereo not drawn), the T/C (dose: 100.0 mg/kg/injection, schedule: Q01DX009 (ip), vehicle: saline sonified) is reported as 125 % of control, the T/C [1] is reported as 108 % of control and the T/C (dose: 176.0 mg/kg/injection, schedule: Q04DX003 (ip), vehicle: saline sonified) is reported as 127 % of control. The T/C (dose: 200.0 mg/kg/injection, schedule: Q01DX009 (ip), vehicle: saline sonified) was 155 % of control, the T/C [2] was 104 % of control and the T/C (dose: 264.0 mg/kg/injection, schedule: Q04DX003 (ip), vehicle: saline sonified) was 122 % of control. The T/C (dose: 400.0 mg/kg/injection, schedule: Q01DX009 (ip), vehicle: saline sonified) was 175 % of control and the T/C (dose: 400.0 mg/kg/injection, schedule: Q04DX003 (ip), vehicle: saline sonified) was 138 [5 of 6 alive] and 170 % of control [5 of 6 alive].
In the case of `CC(=O)N(CCCl)CCCl`, the T/C [3] is reported as 136, 140, 145 % of control, the T/C [4] is reported as 145, 186, 190 % of control and the T/C [5] is reported as 186 and 218 % of control. For the same molecule, the survivor count [6] was 4 of 6.
For `N#CSc1ccc([N+](=O)[O-])cc1[N+](=O)[O-]`, the T/C (dose: 25.0 mg/kg/injection, schedule: Q04DX003 (ip), vehicle: saline) was 123 % of control, the T/C [7] was 126 % of control and the survivor count [3] was 6 of 6.
`CC(C)(C)C1CNP(C)(=O)OC1` (stereo not drawn) was tested, and the T/C (dose: 50.0 mg/kg/injection, schedule: Q01DX005 (ip), vehicle: saline) was 99 % of control, the T/C (dose: 100.0 mg/kg/injection, schedule: Q01DX005 (ip), vehicle: saline) was 99 % of control and the survivor count (dose: 200.0 mg/kg/injection, schedule: Q01DX005 (ip), vehicle: saline) was 0 of 6.
With `NP(N)(=O)N(CCCl)CCCl` the T/C [3] was 100 % of control, the T/C [4] was 113 % of control and the T/C [6] was 113 % of control.
`CC(Cl)CN(CC(C)Cl)C(=O)OCC(N)C(=O)O` (stereo not drawn) was tested, and the T/C (dose: 12.5 mg/kg/injection, schedule: Q01DX010 (ip), vehicle: water) was 100 % of control, the T/C (dose: 25.0 mg/kg/injection, schedule: Q01DX010 (ip), vehicle: water) was 100 % of control and the T/C (dose: 50.0 mg/kg/injection, schedule: Q01DX010 (ip), vehicle: water) was 100 % of control. The T/C (dose: 100.0 mg/kg/injection, schedule: Q01DX010 (ip), vehicle: water) was 100 % of control, the T/C (dose: 200.0 mg/kg/injection, schedule: Q01DX010 (ip), vehicle: water) was 100 % of control and the survivor count (dose: 400.0 mg/kg/injection, schedule: Q01DX010 (ip), vehicle: water) was 0 of 10.
In the case of `Cc1cc(Cl)ccc1Nc1c([N+](=O)[O-])cc([N+](=O)[O-])cc1[N+](=O)[O-]`, the T/C (dose: 50.0 mg/kg/injection, schedule: Q01DX001 (ip), vehicle: Klucel (hydroxypropylcellulose) (HPC)) is reported as 105 % of control [survivor count not shown], the T/C (dose: 100.0 mg/kg/injection, schedule: Q01DX001 (ip), vehicle: Klucel (hydroxypropylcellulose) (HPC)) is reported as 105 % of control [survivor count not shown] and the T/C (dose: 200.0 mg/kg/injection, schedule: Q01DX001 (ip), vehicle: Klucel (hydroxypropylcellulose) (HPC)) is reported as 100 % of control [survivor count not shown].
`CCCN(CCC)CCCCCCCCCCCN1CCCCC1.O=[N+]([O-])c1cc([N+](=O)[O-])c(S(=O)(=O)O)c([N+](=O)[O-])c1` was tested, and the T/C (dose: 100.0 mg/kg/injection, schedule: Q01DX009 (ip), vehicle: Klucel (hydroxypropylcellulose) (HPC)) was 104 % of control, the T/C (dose: 200.0 mg/kg/injection, schedule: Q01DX009 (ip), vehicle: Klucel (hydroxypropylcellulose) (HPC)) was 108 % of control and the survivor count (dose: 400.0 mg/kg/injection, schedule: Q01DX009 (ip), vehicle: Klucel (hydroxypropylcellulose) (HPC)) was 5 of 6.
In the case of `NP(=O)(O)N(CCCl)CCCl`, the T/C [7] is reported as 187 % of control, the T/C (dose: 90.0 mg/kg/injection, schedule: Q04DX003 (ip), vehicle: saline) is reported as 222 and 268 % of control and the T/C [3] is reported as 225 % of control. The T/C (dose: 133.0 mg/kg/injection, schedule: Q04DX003 (ip), vehicle: saline) was 259 [5 of 6 alive] and 272 % of control, the T/C [4] was 177, 250, 272 % of control and the survivor count [5] was 0 of 6. The survivor count [6] was 1 of 6.
`O=C(O)c1cc([N+](=O)[O-])cc([N+](=O)[O-])c1-c1c(C(=O)O)cc([N+](=O)[O-])cc1[N+](=O)[O-]` was tested, and the T/C (dose: 100.0 mg/kg/injection, schedule: Q04DX002 (ip), vehicle: saline + alcohol) was 93 % of control, the T/C (dose: 200.0 mg/kg/injection, schedule: Q04DX002 (ip), vehicle: saline + alcohol) was 95 % of control and the T/C (dose: 400.0 mg/kg/injection, schedule: Q04DX002 (ip), vehicle: saline + alcohol) was 93 % of control.
`CCCP(=O)(N(C)C)N(C)C` was tested, and the T/C [8] was 93 % of control [survivor count not shown], the T/C [9] was 96 % of control [survivor count not shown] and the T/C [10] was 104 % of control [survivor count not shown].
`O[C@H](CNCCCl)[C@H](O)CNCCCl` was tested, and the T/C (dose: 5.0 mg/kg/injection, schedule: Q04DX003 (ip), vehicle: saline) was 187 % of control, the T/C (dose: 5.5 mg/kg/injection, schedule: Q01DX008 (ip), vehicle: saline) was 183 % of control and the T/C (dose: 8.3 mg/kg/injection, schedule: Q01DX008 (ip), vehicle: saline) was 250 % of control. The T/C (dose: 10.0 mg/kg/injection, schedule: Q04DX003 (ip), vehicle: saline) was 212 % of control, the T/C (dose: 12.5 mg/kg/injection, schedule: Q01DX008 (ip), vehicle: saline) was 250 % of control and the survivor count (dose: 12.5 mg/kg/injection, schedule: Q01DX009 (ip), vehicle: saline) was 6 of 6. The T/C (dose: 14.0 mg/kg/injection, schedule: Q04DX003 (ip), vehicle: saline) was 227 % of control, the T/C (dose: 18.7 mg/kg/injection, schedule: Q01DX008 (ip), vehicle: saline) was 250 % of control and the T/C (dose: 20.0 mg/kg/injection, schedule: Q04DX003 (ip), vehicle: saline) was 245 % of control. For the same molecule, the T/C (dose: 21.0 mg/kg/injection, schedule: Q04DX003 (ip), vehicle: saline) was 268 % of control, the T/C (dose: 22.0 mg/kg/injection, schedule: Q04DX003 (ip), vehicle: saline) was 260 % of control and the T/C [11] was 118 % of control. For the same molecule, the survivor count [11] was 6 of 6, the T/C (dose: 33.0 mg/kg/injection, schedule: Q04DX003 (ip), vehicle: saline) was 104 [5 of 6 alive] and 245 % of control [5 of 6 alive] and the survivor count (dose: 50.0 mg/kg/injection, schedule: Q01DX009 (ip), vehicle: saline) was 6 of 6 (2×). For the same molecule, the T/C (dose: 50.0 mg/kg/injection, schedule: Q04DX003 (ip), vehicle: saline sonified) was 300 % of control, the T/C [7] was 260 and 272 % of control and the survivor count (dose: 75.0 mg/kg/injection, schedule: Q04DX003 (ip), vehicle: saline) was 6 of 6 (2×). For the same molecule, the survivor count (dose: 100.0 mg/kg/injection, schedule: Q01DX009 (ip), vehicle: saline) was 4 of 6, the T/C [1] was 135 % of control and the survivor count [2] was 6 of 6.
With `NC(=O)c1cn[nH]c1/N=N/N(CCCl)CCCl` the T/C [8] was 104 % of control, the T/C [9] was 120 % of control and the survivor count [10] was 3 of 6.
`O=[N+]([O-])c1ccc2nn([N+](=O)[O-])c(Cl)c2c1` was tested, and the T/C [8] was 97 % of control, the T/C [9] was 95 % of control and the T/C [10] was 106 % of control.
